For 23 sequences, binding signal results are on record in paper PMC7819943, “Rice protein-binding microarrays: a tool to detect cis-acting elements near promoter regions in rice”.

The other results are listed elsewhere or left out.

In the test the target is T1, OsSMF1 (Oryza sativa, UniProt Q6ZLB0 1-436).
T1 sequence: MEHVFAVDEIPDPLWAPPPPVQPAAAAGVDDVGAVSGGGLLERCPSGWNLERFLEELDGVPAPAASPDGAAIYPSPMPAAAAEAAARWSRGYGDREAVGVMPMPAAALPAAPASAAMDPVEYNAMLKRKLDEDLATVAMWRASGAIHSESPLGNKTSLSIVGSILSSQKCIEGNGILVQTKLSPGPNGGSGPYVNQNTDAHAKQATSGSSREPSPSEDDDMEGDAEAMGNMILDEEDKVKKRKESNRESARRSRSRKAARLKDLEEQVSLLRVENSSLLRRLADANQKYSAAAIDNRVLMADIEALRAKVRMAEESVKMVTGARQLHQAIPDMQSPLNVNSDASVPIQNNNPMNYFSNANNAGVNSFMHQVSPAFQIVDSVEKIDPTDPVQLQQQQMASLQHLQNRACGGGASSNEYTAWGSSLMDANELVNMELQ
Briefly: protein-binding microarray (RPBM); PBS, 2% BSA, 51.3 ng/ul salmon testes DNA, 50 uM zinc acetate, 200 nM TF, 25 C, 1 h; high values mean tight binding. The following applies: protein: recombinant; tags: N-terminal polyhistidine and DsRed monomer fusion (pET32a); chain copies: 2; label: CyDye5-dUTP incorporated in the synthesized complementary strand; 3' TTTTT single-stranded linker to array surface; dsDNA, one strand shown. The essentials: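 The binding signal is fluorescence intensity per feature, in arbitrary units, read on an Axon 4000B scanner. Polyhistidine- and DsRed-tagged transcription factors (N-terminal fusions) from E. coli BL21-CodonPlus were purified on Ni–NTA and applied at 200 nM for 1 h at 25 °C to a double-stranded, BSA-blocked custom Agilent array in buffer with 50 µM zinc acetate.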
As for “GCTCTCCCCACCGGTGGTGAGTCACCACGCTGCGTGGCAACGGAGTCACCTAGTGCAG”, the binding signal was 11400 fluorescence intensity (a.u.).
Consider “GATCATGAGTTTGATGACTCAGACAAATGGCACGCTCTAACGGAGTCACCTAGTGCAG”, for which the binding signal was 10000 fluorescence intensity (a.u.).
Regarding “ACGGACGGCTTAGATTTCATTAGCCCACACCCAACCCTAGCGGAGTCACCTAGTGCAG”, the binding signal is 3220 fluorescence intensity (a.u.).
On to “AGTTATTGGTGTACACTAGTCGGCAGGCTAGATTAGCTAGCGGAGTCACCTAGTGCAG”, for which the binding signal is 15300 fluorescence intensity (a.u.).
Regarding “TGCGTTCCTTGTCGGGAGGGAGGCTGACGCGCCGACGAGCCGGAGTCACCTAGTGCAG”, the binding signal was 4790 fluorescence intensity (a.u.).
On to “TTTACAGAGCAAAACCAGAGAATAGAAACCAGCTCGTCTTCGGAGTCACCTAGTGCAG”, for which the binding signal is 5360 fluorescence intensity (a.u.).
On to “TAGAGCTGTAGTTAGTAGTCCGGTCATCTAAGTTAGCATGCGGAGTCACCTAGTGCAG”, for which the binding signal is 3440 fluorescence intensity (a.u.).
For “TCCTGCTCCGCCCACTCACCCCGCCACGTGGTGGCTGGGTCGGAGTCACCTAGTGCAG” the value was 12200 fluorescence intensity (a.u.); for “ATTTCCGGGCGTGACATTATATAAGCGTACGTGTGCCCTGCGGAGTCACCTAGTGCAG”, 5400 fluorescence intensity (a.u.); for “ATCAGCTTTCTCAAACCACGCAGCCACGACACATCGATCTCGGAGTCACCTAGTGCAG”, 4250 fluorescence intensity (a.u.).
As for “CTGTGTAGGCTCGTATTTAAGTAGTGCCGTGTGAACTTTCCGGAGTCACCTAGTGCAG”, the binding signal was 17700 fluorescence intensity (a.u.).
Regarding “CGACCCCGTGGTCACGCTCCACGCCATCCGCGCCACCGACCGGAGTCACCTAGTGCAG”, the binding signal is 7680 fluorescence intensity (a.u.).
Then “TCAGCTAGAATGCTTTAGGACTCCTTTACTAACGCAAGGACGGAGTCACCTAGTGCAG”, with 3770 fluorescence intensity (a.u.); and “GGTGCTAACCTTCTCCTGGTCATGTGTGTTGGCGCTGCCACGGAGTCACCTAGTGCAG”, with 3810 fluorescence intensity (a.u.); and “CCCACCTCATCCCTGGCCCCACATGTCATCCACCCAAATCCGGAGTCACCTAGTGCAG”, with 3150 fluorescence intensity (a.u.).
For “AGGTGTACCTAGCAAACTAGCTAGCAACTGTACACGCGTACGGAGTCACCTAGTGCAG” the value was 3430 fluorescence intensity (a.u.); for “GCGGCGGCGGCGCGAGGTTGACGACGACCCTGTCAGCGGGCGGAGTCACCTAGTGCAG”, 3550 fluorescence intensity (a.u.); for “GGTTTTAGCTGACGTGGCGCCTACGTGACAGTGTTGACCCCGGAGTCACCTAGTGCAG”, 32700 fluorescence intensity (a.u.).
As for “CTCATAGTCATAGTTACTGATTTGTTTGCTCATAGTCATACGGAGTCACCTAGTGCAG”, the binding signal is 22700 fluorescence intensity (a.u.).
Take “TCCATCTCCAGGTCAAGATTTCTGGTTTTGCGGTTCAGTGCGGAGTCACCTAGTGCAG”: the binding signal was 20900 fluorescence intensity (a.u.).
On to “CGTCAGATTATCTCTTGCGTGTTGCGTGTAGCTCACCGGACGGAGTCACCTAGTGCAG”, for which the binding signal is 4190 fluorescence intensity (a.u.).
As for “ATCTCTAAACACCAAATTTGACACCGATCCACGTGCACACCGGAGTCACCTAGTGCAG”, the binding signal is 7210 fluorescence intensity (a.u.).
On to “TAAGGAAGTGCTACAACTTATACAAACAGCTCATAACAGGCGGAGTCACCTAGTGCAG”, for which the binding signal is 3830 fluorescence intensity (a.u.).
